Data source: PubChem BioAssay AID743121 (NCATS, 2013)
Assay: 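Knock-downs that sensitise breast cancer cells to camptothecin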 (primary screen). Cell system: MDA-MB-231 cells, a human breast cancer line. Knock-down reagent: single siRNA against human genes, 20 nM siRNA (0.8 pmol per well). Time to read-out: 120 h (drug added 48 h after transfection, read 72 h later). Challenge: camptothecin 20 nM (about EC30) for 72 h; vehicle 0.1% DMSO in parallel plates. Detection: 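CellTiter-Glo ATP signal, scaled to control siRNA as percent viability; sensitisation given as log2 of untreated divided by camptothecin-treated viability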. Scale: log2 vehicle/camptothecin viability: higher = stronger sensitisation to camptothecin. Active means: 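Active genes have an RSA gene-level p-value below 0.001, computed from the ratios of their separate siRNAs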.
Shown is an unselected part of about 26,000 deposited reagents. 167 of all reagents (0.63%) count as active. 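Calls are per gene from RSA p-values that are not deposited; an individual active-marked siRNA can sensitise only weakly.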 Entries without a mark were called inactive. The numbers tell different reagents against one gene apart. Not all columns of the deposit are shown. Reagent sequences are not shown.

Silencing of CD180 (GeneID 4064) #1 resulted in: log2 vehicle/camptothecin viability -0.153. For CD180 (GeneID 4064) #2, the values are log2 vehicle/camptothecin viability -0.117. CD180 (GeneID 4064) #3 gave log2 vehicle/camptothecin viability 0.0588. OR3A1 (GeneID 4994) #1 showed log2 vehicle/camptothecin viability -0.309. After knock-down of OR3A1 (GeneID 4994) #2, the record shows log2 vehicle/camptothecin viability -0.0446. Depletion of OR3A1 (GeneID 4994) #3 came out at: log2 vehicle/camptothecin viability -0.174.

Against OR3A1 (GeneID 4994) #4, the entry reads log2 vehicle/camptothecin viability 0.545. For GPR63 (GeneID 81491) #1, the entry reads log2 vehicle/camptothecin viability -0.105. Against GPR63 (GeneID 81491) #2 the deposit lists log2 vehicle/camptothecin viability 0.537. GPR63 (GeneID 81491) #3 gave log2 vehicle/camptothecin viability -0.19. Knock-down of GPR63 (GeneID 81491) #4 came out at: log2 vehicle/camptothecin viability -0.364. Knock-down of USF1 (GeneID 7391) #1 came out at: log2 vehicle/camptothecin viability -0.427.

USF1 (GeneID 7391) #2 scored log2 vehicle/camptothecin viability -0.0978. For USF1 (GeneID 7391) #3 the deposit lists log2 vehicle/camptothecin viability -0.233. GNAT1 (GeneID 2779) #1 scored log2 vehicle/camptothecin viability -0.107. Knock-down of GNAT1 (GeneID 2779) #2 resulted in: log2 vehicle/camptothecin viability -0.131. Silencing of GNAT1 (GeneID 2779) #3 came out at: log2 vehicle/camptothecin viability -0.858. Against GNAT1 (GeneID 2779) #4, the values are log2 vehicle/camptothecin viability 0.0113.

For G2E3 (GeneID 55632) #1, the values are log2 vehicle/camptothecin viability 0.00874. Against G2E3 (GeneID 55632) #2 the deposit lists log2 vehicle/camptothecin viability -0.141. With knock-down of G2E3 (GeneID 55632) #3, the screen gave log2 vehicle/camptothecin viability 0.986. Depletion of G2E3 (GeneID 55632) #4 gave: log2 vehicle/camptothecin viability 0.295. Against TAP2 (GeneID 6891) #1, the values are log2 vehicle/camptothecin viability -0.103. Depletion of TAP2 (GeneID 6891) #2 gave: log2 vehicle/camptothecin viability 0.329.

Against TAP2 (GeneID 6891) #3, the values are log2 vehicle/camptothecin viability 0.755. TAP2 (GeneID 6891) #4 scored log2 vehicle/camptothecin viability 0.316. Against PIK3CA (GeneID 5290) #1, the values are log2 vehicle/camptothecin viability -0.108. Silencing of PIK3CA (GeneID 5290) #2 resulted in: log2 vehicle/camptothecin viability 0.277. Against PIK3CA (GeneID 5290) #3, the entry reads log2 vehicle/camptothecin viability 0.00998. PIK3CA (GeneID 5290) #4 scored log2 vehicle/camptothecin viability -0.35.

With knock-down of TRPM5 (GeneID 29850) #1, the screen gave log2 vehicle/camptothecin viability -0.462. TRPM5 (GeneID 29850) #2 showed log2 vehicle/camptothecin viability -0.307. Against TRPM5 (GeneID 29850) #3, the entry reads log2 vehicle/camptothecin viability -0.206. TRPM5 (GeneID 29850) #4 showed log2 vehicle/camptothecin viability -0.0225. After knock-down of WEE1 (GeneID 7465) #1, the record shows log2 vehicle/camptothecin viability -0.181. WEE1 (GeneID 7465) #2 gave log2 vehicle/camptothecin viability 0.135.

Knock-down of WEE1 (GeneID 7465) #3 gave: log2 vehicle/camptothecin viability 1.86. WEE1 (GeneID 7465) #4 gave log2 vehicle/camptothecin viability -0.444.
